Data taken from EP3431490B1, “CHEMICAL COMPOUNDS FOR USE AS DIAGNOSTIC MARKERS OF INFLAMMATION AND NEOPLAMS, THE METHOD FOR SYNTHESIS OF THE CHEMICAL COMPOUNDS, DIAGNOSTIC KIT FOR USE IN DIAGNOSIS OF INFLAMMATORY PROCESSES AND EPITHELIAL NEOPLASMS AND IN VITRO DIAGNOSTIC METHOD OF INFLAMMATORY PROCESSES AND EPITHELIAL NEOPLASMS” (Uniwersytet Gdanski, priority 2017, dated 2019).
Not every detail of the peptide structures is certain; ends, links or a residue may be inferred. Square brackets hold non-standard residues; d marks the D form. Peptide text beside a SMILES is read from it. * marks the point of attachment. NH(3-CONH2-4-NO2-Ph) = NC(=O)c1cc(N*)ccc1[N+](=O)[O-]; pNA = O=[N+]([O-])c1ccc(N*)cc1; 2Abz = Nc1ccccc1C(=O)O

Experiments:
proteinase 3 = target: T1, proteinase 3 (Homo sapiens, UniProt P24158); test: Hydrolysis of substrate by proteinase 3 (additional experiment); type: biochemical
T1 sequence (P24158 28-256): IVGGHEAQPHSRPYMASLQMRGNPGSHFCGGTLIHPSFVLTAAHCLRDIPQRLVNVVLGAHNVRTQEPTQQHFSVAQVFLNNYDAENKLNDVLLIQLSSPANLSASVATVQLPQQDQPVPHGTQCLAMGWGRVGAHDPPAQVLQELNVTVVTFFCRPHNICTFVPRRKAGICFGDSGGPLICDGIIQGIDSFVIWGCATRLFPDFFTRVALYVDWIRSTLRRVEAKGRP

elastase = target: T2, elastase (Homo sapiens, UniProt P08246); test: Hydrolysis of substrate by elastase (additional experiment); type: biochemical
T2 sequence (P08246 30-267): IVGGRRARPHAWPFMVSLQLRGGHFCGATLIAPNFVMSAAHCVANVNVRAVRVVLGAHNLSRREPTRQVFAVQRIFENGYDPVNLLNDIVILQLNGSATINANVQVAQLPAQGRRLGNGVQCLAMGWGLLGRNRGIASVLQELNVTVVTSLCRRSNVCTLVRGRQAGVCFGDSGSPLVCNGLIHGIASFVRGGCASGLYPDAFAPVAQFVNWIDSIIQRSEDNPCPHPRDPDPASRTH

[1] = test system: proteolytic enzymes present in the examined biological material (urine); test: Hydrolysis of ABZ-Leu-Glu-Pro-Val-X substrates in urine (absorbance increase 380-430 nm, HPLC analysis); type: biochemical, human; conditions: for increase in absorbance, healthy samples: urine of healthy control; for increase in absorbance, healthy samples / increase in absorbance, samples of patients: 380-430 nm, 60 minutes, 37°C, pH 8.3; for increase in absorbance, samples of patients: urine of patients; for color / absorbance reading in urine with diagnosed inflammation: urine with inflammation confirmed by neutrophil elastase, around 410 nm (380-430 nm)

Compound	proteolysis by proteinase 3 (proteinase 3)	hydrolysis by elastase (elastase)	increase in absorbance, healthy samples [1]	increase in absorbance, samples of patients [1]	color / absorbance reading in urine with diagnosed inflammation [1]
CC(C)C[C@H](NC(=O)c1ccccc1N)C(=O)N[C@@H](CCC(=O)O)C(=O)N1CCC[C@H]1C(=O)N[C@H](C(=O)Nc1ccc([N+](=O)[O-])c(C(N)=O)c1)C(C)C [ABZ-Leu-Glu-Pro-Val-ANB-NH2, ABZ^1-Leu^2-Glu^3-Pro^4-Val^5-ANB-NH2^6] (H-[2Abz]LEPV-{NH(3-CONH2-4-NO2-Ph)})	does not cause proteolysis	is hydrolyzed by elastase	no increase in the absorption	increase in the absorbance	the color was observed
CC(C)C[C@H](NC(=O)c1ccccc1N)C(=O)N[C@@H](CCC(=O)O)C(=O)N1CCC[C@H]1C(=O)N[C@H](C(=O)Nc1ccc([N+](=O)[O-])cc1)C(C)C [ABZ-Leu-Glu-Pro-Val-pNA, ABZ^1-Leu^2-Glu^3-Pro^4-Val^5-pNA^6] (H-[2Abz]LEPV-pNA)	–	–	no increase in the absorption	increase in the absorbance	the color was observed
